Experimental data as given in US8551964B2, “Hsp90 inhibitors with modified toxicity” (The Regents of the University of Colorado, priority 2007, dated 2013).
Some of these results come from one statement about several compounds together. At least one compound was matched to its structure with a doubt left.

Assay: Interaction of BA Hsp90 inhibitors with reduced glutathione (HPLC, LC-MS, [3H] glutathione)
Conditions: 50 μM BA, 5 mM reduced glutathione, pH 7.4, room temperature; after 24 h
Experimental: GM-glutathione conjugate formation was analyzed by HPLC and LC-MS. Briefly, 50 μM GM, 500 μM NADH, and 5 mM glutathione in the absence and presence of 11.8 μg rh-NQO1 and in the absence or presence of 2 μM ES936, were incubated in 50 mM potassium phosphate buffer, pH 7.4 (1 ml) at room temperature for 5 min. GM-glutathione conjugate formation was analyzed by HPLC at 270 nm (5 min).
Reaction conditions were: 50 μM 17DMAG, 500 μM NADH, and 5 mM glutathione, in the absence and presence of 11.8 μg rhNQO1 and in the absence or presence of 2 μM ES936, were incubated in 50 mM potassium phosphate buffer, pH 7.4 (1 ml) at room temperature for 3 h. 17DMAG-glutathione conjugate formation was analyzed by HPLC at 270 nm (3 h).
Reaction conditions were: 50 μM BA and 5 mM GSH were incubated in 50 mM potassium phosphate buffer, pH 7.4 (1 ml) at room temperature in the absence and presence of 11.8 μg of rhNQO1 and 500 μM NADH. BA-GSH conjugate formation was analyzed by HPLC at 270 nm and further confirmed by LC-MS. The amount of BA glutathione conjugate formation was quantified using [3H] glutathione.

C=CCNC1=C2C[C@@H](C)C[C@H](OC)[C@H](O)[C@@H](C)/C=C(\C)[C@H](OC(N)=O)[C@@H](OC)/C=C\C=C(/C)C(=O)NC(=CC1=O)C2=O [17AAG, 17-(allylamino)-17-demethoxygeldanamycin]
fraction conjugated with glutathione: less than 15%
